Reference: the supplement of paper PMC9588786
± gives the standard deviation of the averaged measurements. Only a part is listed here, and it is no random draw.

System: HT-1080
Experiment: relative cell viability with RSL3 co-treatment (fraction of control); higher = stronger protection from RSL3-induced ferroptosis (higher viability)
Conditions: 10 µM
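Further: viability read as CCK-8 absorbance at 450 nm in cells co-exposed to the GPX4 inhibitor RSL3, relative to a 0.01% DMSO vehicle control.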

SMILES | relative cell viability
Cc1ccccc1-n1c(Cn2nc(-c3cccc(O)c3)c3c(N)ncnc32)nc2cccc(C)c2c1=O | 0.64 ± 0.075
Cc1nc2c(-c3cnc(N)nc3)nc(N3CCOCC3)nc2n1C(C)C | 0.583 ± 0.13
